PubChem BioAssay AID1053208, Peter MacCallum Cancer Centre, 2014
Purpose: 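Find knock-downs that sensitise mouse osteosarcoma cells to doxorubicin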 (primary screen). Cells: mouse osteosarcoma cells, early-passage culture from an engineered mouse model of fibroblastic bone tumour. Reagents: siRNA pool against mouse genes, 40 nM. Time to read-out: about 120 h (48 h before drug, then 72 h with drug). Conditions: doxorubicin 100 nM for 72 h, roughly 30-40% inhibitory dose. Measured: 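Viability read as ATP luminescence after 72 h of 100 nM doxorubicin or none, duplicate wells averaged, scaled to non-targeting siRNA, then expressed as robust z-scores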. Scale: viability z-score with doxorubicin: higher = more viable cells under doxorubicin; viability z-score without drug: higher = more viable cells with knock-down alone. Rule for the call: 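Called active if knock-down leaves viability unchanged without drug (z within -2 to 2) but lowers it with doxorubicin (z at or under -2)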.
Shown is an unselected part of about 17,000 reagents tested. In the full data, 788 (4.7%) are marked active. 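Calls rest on z-score classes alone; an extra cut-off of viability at most 70% of control was not applied to them.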 Not all columns of the deposit are shown. Reagent sequences are not shown.

Hace1: combined z-score class = no change with or without drug; viability z-score with doxorubicin = 1.35; viability z-score without drug = 0.84; Call = inactive
Tmem254: combined z-score class = no change with or without drug; viability z-score with doxorubicin = 0.45; viability z-score without drug = 1.85; Call = inactive
Or4c108: combined z-score class = no change with or without drug; viability z-score with doxorubicin = -0.67; viability z-score without drug = 0.51; Call = inactive
Or1e34: combined z-score class = no change with or without drug; viability z-score with doxorubicin = 0.34; viability z-score without drug = 1.18; Call = inactive
Pofut1: combined z-score class = no change with or without drug; viability z-score with doxorubicin = 0; viability z-score without drug = 0.51; Call = inactive
Hal: combined z-score class = no change with or without drug; viability z-score with doxorubicin = 0; viability z-score without drug = 0.51; Call = inactive
Ppme1: combined z-score class = no change with or without drug; viability z-score with doxorubicin = -1.35; viability z-score without drug = -0.84; Call = inactive
Cep70: combined z-score class = no change with or without drug; viability z-score with doxorubicin = 0.9; viability z-score without drug = -0.51; Call = inactive
Mgat4d: combined z-score class = no change with or without drug; viability z-score with doxorubicin = -0.45; viability z-score without drug = 1.52; Call = inactive
Rmp64: combined z-score class = no change with or without drug; viability z-score with doxorubicin = -0.22; viability z-score without drug = -0.84; Call = inactive
Prss2: combined z-score class = no change with or without drug; viability z-score with doxorubicin = 0.11; viability z-score without drug = 1.35; Call = inactive
Or6b6: combined z-score class = no change with or without drug; viability z-score with doxorubicin = -1.91; viability z-score without drug = 1.52; Call = inactive

Single entries from above.
For “Call”, Prss2 is entered as inactive
For “combined z-score class”, Or6b6 has no change with or without drug
